Test results: paper PMC9810639
Results are given in words; binding and its absence hold for the method and conditions named. Binding seen in cells or lysates may run through a third protein. Binding can be weak; no strength is given. Tags and fused reporters may be left off the sequences shown.

Molecular target: T1, MLO1-cLUC (Arabidopsis thaliana) (UniProt O49621)
T1 sequence: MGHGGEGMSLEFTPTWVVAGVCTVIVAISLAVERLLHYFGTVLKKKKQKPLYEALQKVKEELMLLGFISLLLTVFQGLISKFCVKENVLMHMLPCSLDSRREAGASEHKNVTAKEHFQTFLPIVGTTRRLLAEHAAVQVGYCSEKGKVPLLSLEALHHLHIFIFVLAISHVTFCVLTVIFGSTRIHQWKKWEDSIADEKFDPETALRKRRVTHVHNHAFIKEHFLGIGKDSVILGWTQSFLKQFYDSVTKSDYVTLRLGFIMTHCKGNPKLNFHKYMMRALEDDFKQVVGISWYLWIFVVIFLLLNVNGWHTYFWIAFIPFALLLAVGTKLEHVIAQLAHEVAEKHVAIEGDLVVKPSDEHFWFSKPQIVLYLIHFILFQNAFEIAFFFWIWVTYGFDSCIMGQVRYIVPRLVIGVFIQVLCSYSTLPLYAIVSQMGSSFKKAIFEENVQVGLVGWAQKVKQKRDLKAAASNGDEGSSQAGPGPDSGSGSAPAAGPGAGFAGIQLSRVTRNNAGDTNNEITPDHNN
Test: split reporter; split-luciferase complementation (LUC) imaging in N. benthamiana leaves co-infiltrated with Agrobacterium GV3101 carrying pairs of nLUC and cLUC constructs plus p19; leaves sprayed with 1 mM D-luciferin 36-48 h after infiltration, CCD imaging

Row | binding | Substance
1 | binds | MARIS-nLUC (Arabidopsis thaliana)
2 | binds | MARIS^R240C-nLUC (Arabidopsis thaliana)
